PubChem BioAssay AID504791 | Drosophila RNAi Screening Center – 2011
In all, the deposit lists about 23,000 reagents; this is an unselected part of those that have a named target and a result. Of all reagents, 199 (0.86%) were called active. 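Plate-scaled ratios behind the calls are not deposited; printed light signals are raw; many rows marked increased or decreased are still called inactive.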 Reagents against one gene are numbered here. A plus sign joins genes that one reagent is predicted to hit.

- Aim: 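Genes whose knock-down strengthens or weakens small-RNA reporter silencing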 (primary screen)
- System: Drosophila S2-derived reporter cells
- Knock-down reagent: long dsRNA against Drosophila genes, about 150-250 ng dsRNA per well (siRNA assay); about 80-120 ng (miRNA assay)
- Timing: about 5 days (siRNA assay); about 4 days (miRNA assay)
- Treatment: copper sulfate induction of reporters: 25 µM (siRNA assay); 200 mM stated (miRNA assay), 1-2 days before reading
- Read-out: 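Per-well ratio of Renilla over firefly light, expressed relative to that plate's average ratio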
- Scale: siRNA reporter hit score: higher = 3 marks a strong hit with raised ratio; -3 a strong hit with lowered ratio
- Call rule: 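a well was a first-pass pick when its plate-scaled ratio rose above 1.5 (siRNA assay) or 1.6 (miRNA assay), or dropped below 0.6; a gene counted only if two separate dsRNAs agreed on retest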

siRNA reporter hit score	stable siRNA reporter change	miRNA reporter change	stable assay Renilla, run 1 (luminescence)	stable assay firefly, run 1 (luminescence)	call	Target gene	dsRNA no.
			7519	2.83e5	inactive	bmm	1
			6371	2.90e5	inactive	CG42288	1
			11994	5.65e5	inactive	PCID2	1
			6955	7.34e5	inactive	CG31140	1
			10113	4.83e5	inactive	CG31140	2
			7319	3.59e5	inactive	CG31140	3
			6424	4.29e5	inactive	CG7115	1
-3	reporter ratio lowered past the hit cutoff		7385	7.84e5	inactive	Traf4	1
			21380	5.33e5	inactive	Traf4	2
			5710	3.33e5	inactive	Sas-6	1
	reporter ratio lowered past the hit cutoff		4810	3.67e5	inactive	Tdh	1

3 of these entries in another layout:
| siRNA reporter hit score | stable siRNA reporter change | miRNA reporter change | stable assay Renilla, run 1 (luminescence) | stable assay firefly, run 1 (luminescence) | call | Target gene | dsRNA no. |
| --- | --- | --- | --- | --- | --- | --- | --- |
| – | – | – | 6424 | 4.29e5 | inactive | CG7115 | 1 |
| -3 | reporter ratio lowered past the hit cutoff | – | 7385 | 7.84e5 | inactive | Traf4 | 1 |
| – | – | – | 21380 | 5.33e5 | inactive | Traf4 | 2 |

More results:
siRNA reporter hit score	stable siRNA reporter change	miRNA reporter change	stable assay Renilla, run 1 (luminescence)	stable assay firefly, run 1 (luminescence)	call	Target gene	dsRNA no.
			7203	3.30e5	inactive	Nca	1
			6580	3.51e5	inactive	pdm2	1
			5535	2.36e5	inactive	pdm2	2
			8539	3.88e5	inactive	pdm2	3
			7348	4.07e5	inactive	CG4363	1
			5667	6.32e5	inactive	PH4alphaPV	1
		reporter ratio lowered past the hit cutoff			inactive	PH4alphaPV	2
			5855	5.04e5	inactive	CG34330	1
			6434	4.26e5	inactive	Tsp42A	1
			5108	4.73e5	inactive	sage	1
		reporter ratio raised past the hit cutoff			inactive	sncRNA:430e + His2A:CG33859 + His2A:CG33817 + 42 more	1
			7499	3.78e5	inactive	Kdm4A	1
			5787	4.09e5	inactive	CG14238	1
			5311	4.03e5	inactive	SuUR	1
			6648	3.51e5	inactive	yata	1
			4888	4.02e5	inactive	nmdyn-D6	1
			4779	3.40e5	inactive	CG32651	1
			5766	2.79e5	inactive	rumpel	1
			5567	3.13e5	inactive	Rdh	1
			3792	2.73e5	inactive	Rdh	2
			4087	2.85e5	inactive	Ste:CG33238 + Ste:CG33241 + Ste:CG33236 + 11 more	1
			6146	3.44e5	inactive	Ste:CG33238 + Ste:CG33241 + Ste:CG33236 + 11 more	2
			7318	3.69e5	inactive	CG2772	1
